In PMC6746701, “A phyB-PIF1-SPA1 kinase regulatory complex promotes photomorphogenesis in Arabidopsis” (Nature Communications, 2019):
Results are given in words; binding and its absence hold for the method and conditions named. For part of these data: Binding seen in cells or lysates may run through a third protein. Some binding calls cover weakened binding; strength is not graded here. Where a sequence is shown, tags or fusion partners need not be part of it.

The chains behind the UniProt entries cited, without tags or fusion partners. Where a name states a change or a piece, a line headed by the entry shows the natural chain unless it says otherwise. A line that says so, or that is headed by a name, gives the form on record, which may keep a tag or linker. Residues count along the entry.
UniProt P14713: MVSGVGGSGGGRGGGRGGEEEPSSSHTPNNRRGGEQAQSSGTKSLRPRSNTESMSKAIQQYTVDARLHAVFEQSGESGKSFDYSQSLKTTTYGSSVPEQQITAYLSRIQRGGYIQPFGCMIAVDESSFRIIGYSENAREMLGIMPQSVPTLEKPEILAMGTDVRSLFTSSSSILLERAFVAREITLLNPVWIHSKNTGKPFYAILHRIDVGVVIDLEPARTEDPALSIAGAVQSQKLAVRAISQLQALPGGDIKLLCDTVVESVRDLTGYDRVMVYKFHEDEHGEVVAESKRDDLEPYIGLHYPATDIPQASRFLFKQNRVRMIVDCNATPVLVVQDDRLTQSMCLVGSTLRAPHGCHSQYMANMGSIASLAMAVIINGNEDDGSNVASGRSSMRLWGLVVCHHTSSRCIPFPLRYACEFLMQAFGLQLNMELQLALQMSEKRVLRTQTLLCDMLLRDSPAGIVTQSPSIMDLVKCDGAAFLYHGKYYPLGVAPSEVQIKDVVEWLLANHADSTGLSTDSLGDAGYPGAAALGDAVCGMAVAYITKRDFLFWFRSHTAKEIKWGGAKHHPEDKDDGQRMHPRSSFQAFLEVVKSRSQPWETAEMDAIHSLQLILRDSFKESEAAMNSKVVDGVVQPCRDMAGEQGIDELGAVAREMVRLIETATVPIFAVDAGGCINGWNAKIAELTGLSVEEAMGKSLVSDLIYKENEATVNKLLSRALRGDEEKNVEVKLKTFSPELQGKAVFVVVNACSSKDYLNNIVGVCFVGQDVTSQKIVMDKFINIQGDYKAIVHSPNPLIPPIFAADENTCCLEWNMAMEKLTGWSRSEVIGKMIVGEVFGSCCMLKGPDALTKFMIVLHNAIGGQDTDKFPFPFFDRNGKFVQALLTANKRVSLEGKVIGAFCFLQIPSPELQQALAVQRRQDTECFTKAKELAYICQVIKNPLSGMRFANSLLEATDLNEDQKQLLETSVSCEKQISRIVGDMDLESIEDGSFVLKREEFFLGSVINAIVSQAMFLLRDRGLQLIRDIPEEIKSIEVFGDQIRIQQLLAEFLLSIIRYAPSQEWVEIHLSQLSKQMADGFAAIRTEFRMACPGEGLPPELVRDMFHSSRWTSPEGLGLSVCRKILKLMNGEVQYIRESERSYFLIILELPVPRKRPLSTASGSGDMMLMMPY
phyB-GFP ΔC (1-1092) (from transgenic Arabidopsis): residues 1-1092 of P14713
LexA-PHYB CT (aa 625-1172): residues 625-1172 of P14713
extreme C-terminal (C) domain of phyB fused to BD vector: residues 1093-1172 of P14713

Experiments:
[1] = molecular target: T1, phyA holo-phytochrome purified from Saccharomyces cerevisiae (Arabidopsis) (UniProt P14712); experiment: pull-down; in vitro: phytochromes purified from yeast (S. cerevisiae) and GST-PIF1; light-dependent; both purified
T1 sequence (chain, holo-phytochrome (chromophore bound)): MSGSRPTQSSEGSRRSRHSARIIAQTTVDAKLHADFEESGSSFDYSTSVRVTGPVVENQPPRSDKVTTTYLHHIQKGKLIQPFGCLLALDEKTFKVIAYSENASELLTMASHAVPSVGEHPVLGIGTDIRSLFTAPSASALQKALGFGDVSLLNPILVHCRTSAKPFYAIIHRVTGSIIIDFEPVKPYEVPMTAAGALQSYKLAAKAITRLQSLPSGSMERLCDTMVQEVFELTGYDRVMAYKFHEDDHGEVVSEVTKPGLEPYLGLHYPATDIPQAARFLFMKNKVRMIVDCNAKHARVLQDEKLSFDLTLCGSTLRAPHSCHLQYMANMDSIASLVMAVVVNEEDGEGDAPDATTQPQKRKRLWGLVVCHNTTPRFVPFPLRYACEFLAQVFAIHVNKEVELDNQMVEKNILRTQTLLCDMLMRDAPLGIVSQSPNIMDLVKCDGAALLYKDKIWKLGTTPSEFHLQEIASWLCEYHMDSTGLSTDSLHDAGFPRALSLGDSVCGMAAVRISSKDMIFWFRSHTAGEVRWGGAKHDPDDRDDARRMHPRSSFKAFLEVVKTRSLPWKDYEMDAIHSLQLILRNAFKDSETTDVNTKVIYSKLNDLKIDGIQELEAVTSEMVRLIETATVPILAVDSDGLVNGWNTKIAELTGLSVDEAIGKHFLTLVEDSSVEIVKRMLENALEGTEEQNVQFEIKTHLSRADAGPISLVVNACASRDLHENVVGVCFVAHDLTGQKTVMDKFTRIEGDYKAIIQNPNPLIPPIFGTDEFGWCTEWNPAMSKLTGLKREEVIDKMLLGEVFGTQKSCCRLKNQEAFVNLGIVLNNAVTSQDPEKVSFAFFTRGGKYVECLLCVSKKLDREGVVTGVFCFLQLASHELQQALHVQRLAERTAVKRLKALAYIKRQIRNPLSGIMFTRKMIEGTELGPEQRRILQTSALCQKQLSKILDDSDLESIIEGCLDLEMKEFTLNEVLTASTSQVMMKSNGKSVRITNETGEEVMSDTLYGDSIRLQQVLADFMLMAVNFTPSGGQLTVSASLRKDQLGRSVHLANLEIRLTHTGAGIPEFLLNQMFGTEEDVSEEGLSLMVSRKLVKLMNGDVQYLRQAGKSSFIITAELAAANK

[2] = molecular target: phyB-GFP ΔC (1-1092) (from transgenic Arabidopsis) (Arabidopsis) (UniProt P14713); experiment: co-IP; in vivo; extracts of 4-day-old dark-grown transgenic seedlings kept dark or given red light; anti-HA or anti-GFP antibody on Dynabeads, 2 h at 4 °C in the dark; 50 mM Tris pH 7.5, 150 mM NaCl, 0.1% Tween-20; immunoblot
[3] = molecular target: phyB-GFP FL (from transgenic Arabidopsis) (Arabidopsis) (UniProt P14713); experiment: as above
PIF1-HA (Arabidopsis) = molecular target: T2, PIF1-HA (Arabidopsis) (UniProt Q8GZM7); experiment: as above
T2 sequence: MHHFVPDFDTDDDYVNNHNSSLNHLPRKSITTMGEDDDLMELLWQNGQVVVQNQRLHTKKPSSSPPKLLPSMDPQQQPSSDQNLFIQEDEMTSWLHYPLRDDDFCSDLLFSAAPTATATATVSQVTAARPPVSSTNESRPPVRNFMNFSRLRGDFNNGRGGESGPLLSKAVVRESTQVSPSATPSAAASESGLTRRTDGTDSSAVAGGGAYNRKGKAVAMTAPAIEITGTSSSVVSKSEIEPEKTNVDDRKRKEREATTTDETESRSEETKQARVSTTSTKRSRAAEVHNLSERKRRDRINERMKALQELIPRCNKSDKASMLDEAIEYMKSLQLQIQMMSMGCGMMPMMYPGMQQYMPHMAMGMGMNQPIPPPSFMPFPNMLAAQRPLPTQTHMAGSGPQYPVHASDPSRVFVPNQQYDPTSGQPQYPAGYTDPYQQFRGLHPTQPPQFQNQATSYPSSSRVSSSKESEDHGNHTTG

[4] = molecular target: extreme C-terminal (C) domain of phyB fused to BD vector (Arabidopsis) (UniProt P14713); experiment: two-hybrid; LexA (BD) baits and AD preys in yeast EGY48; β-galactosidase activity normalised by the AD empty vector
[5] = molecular target: LexA-PHYB CT (aa 625-1172) (Arabidopsis) (UniProt P14713); experiment: as above

B1: GST-PIF1-strep (natural protein, Arabidopsis, UniProt Q8GZM7 1-478, looked up)
chain: MHHFVPDFDTDDDYVNNHNSSLNHLPRKSITTMGEDDDLMELLWQNGQVVVQNQRLHTKKPSSSPPKLLPSMDPQQQPSSDQNLFIQEDEMTSWLHYPLRDDDFCSDLLFSAAPTATATATVSQVTAARPPVSSTNESRPPVRNFMNFSRLRGDFNNGRGGESGPLLSKAVVRESTQVSPSATPSAAASESGLTRRTDGTDSSAVAGGGAYNRKGKAVAMTAPAIEITGTSSSVVSKSEIEPEKTNVDDRKRKEREATTTDETESRSEETKQARVSTTSTKRSRAAEVHNLSERKRRDRINERMKALQELIPRCNKSDKASMLDEAIEYMKSLQLQIQMMSMGCGMMPMMYPGMQQYMPHMAMGMGMNQPIPPPSFMPFPNMLAAQRPLPTQTHMAGSGPQYPVHASDPSRVFVPNQQYDPTSGQPQYPAGYTDPYQQFRGLHPTQPPQFQNQATSYPSSSRVSSSKESEDHGNHTTG
notes: source: E. coli BL21(DE3), purified (Strep-Tactin Sepharose); not shown: GST, N-terminal, kept; Strep tag, C-terminal, kept
binding [1]: binds

B2: PIF1 in phyB-GFP FL and phyB-GFP ΔC plants (protein, UniProt Q8GZM7 1-478)
chain: MHHFVPDFDTDDDYVNNHNSSLNHLPRKSITTMGEDDDLMELLWQNGQVVVQNQRLHTKKPSSSPPKLLPSMDPQQQPSSDQNLFIQEDEMTSWLHYPLRDDDFCSDLLFSAAPTATATATVSQVTAARPPVSSTNESRPPVRNFMNFSRLRGDFNNGRGGESGPLLSKAVVRESTQVSPSATPSAAASESGLTRRTDGTDSSAVAGGGAYNRKGKAVAMTAPAIEITGTSSSVVSKSEIEPEKTNVDDRKRKEREATTTDETESRSEETKQARVSTTSTKRSRAAEVHNLSERKRRDRINERMKALQELIPRCNKSDKASMLDEAIEYMKSLQLQIQMMSMGCGMMPMMYPGMQQYMPHMAMGMGMNQPIPPPSFMPFPNMLAAQRPLPTQTHMAGSGPQYPVHASDPSRVFVPNQQYDPTSGQPQYPAGYTDPYQQFRGLHPTQPPQFQNQATSYPSSSRVSSSKESEDHGNHTTG
binding [2]: binds | binding [3]: binds

B3: TAP-SPA1 (protein, UniProt Q9SYX2 1-1029)
chain: MPVMERVAEETVATNNIQLKARVDDVPCNKLDARHNDMVIQSETANSDCPGSSAHRNVDLTKPPPPEEAAGAKLSVEELTLGNYRIVQGSNNTNVDSPRAGKFEHLYRLARGSAFRAGDGDLDSQPRDMDQMLSRIRQQLAGAPSERQNLKPFMSRRSDQNLEAFSERLRAAGENSIMNAPALISEGVQMKTPVSSSNFSQLLLKRAMKGKGVVGKNQETPPEFVSDQDLGSKEKKLDISKSPTPHDVLPLKSSPKGNGMVSHGDGNHSKSSIGISLREFLRSSYAKREKRHGLCLFRQLVELVDSAHSKRLFLLDLRPSLFTLVPSKKLRYIGNFGKNDLESDVDEDLNRRRPVVEESSSGGRDSKKRKMDLHLNSPGNQLQATSTGRPFKRKSPVIDLNMVDARNPDSCELQQQDYIKNLSVSSVSRKQSMSTWLEEQWYTCPEEINGEDIGEKSNIYALGVLLFELLCHCESGEMHAAMMADLRHRILPPTFLSKYPKEAGFCLWLLHPEPSSRPSARDILKSELICEDDSVKSTAAAEEISELLLHFLSSLEVQKKKKASKLLQDIQTLEDDIKEAERRYSSNVSLVRSHGAIEKRVQSSPLDEHCTTSSALFVPTANTDRLMSNIRQLEDAYFFMRSQINLSSSAATARSDKTLKDRDRCSENQNENQDMSTKGKSSDQLEVFFEGLCKFARYSKFETCGTIRSGDLLNSASVVCSLSFDPDEEHIAAAGISKKIKIFDFNAFMNESVGVHYPLVEMVNKSKLSCVCWNSYIKNYLASTDYDGVVQIWDAGTGQGFSQYTEHQKRAWSVDFSPSDPTKFVSGSDDCSVKLWSINEKRSLGTIWSPANVCCVQFSSYSNHLLAFGSADYKVYCYDLRYVKTPWCTLAGHEKAVSYVKFMDSETIVSASTDNSLKLWNLNKTNSSGLSPGACSLTYKGHTNQKNFVGLSVLDGYIACGSETNEVYSYYKSLPMPMTSYKFGSVDPISGNEYFDDNGQFVSSVCWRKKSNMLVAANSTGNMKLLKLV
binding (PIF1-HA (Arabidopsis)): binds

B4: AD-SPA1, full-length (prey of the LexA two-hybrid system) (protein, UniProt Q9SYX2 1-1029)
chain: MPVMERVAEETVATNNIQLKARVDDVPCNKLDARHNDMVIQSETANSDCPGSSAHRNVDLTKPPPPEEAAGAKLSVEELTLGNYRIVQGSNNTNVDSPRAGKFEHLYRLARGSAFRAGDGDLDSQPRDMDQMLSRIRQQLAGAPSERQNLKPFMSRRSDQNLEAFSERLRAAGENSIMNAPALISEGVQMKTPVSSSNFSQLLLKRAMKGKGVVGKNQETPPEFVSDQDLGSKEKKLDISKSPTPHDVLPLKSSPKGNGMVSHGDGNHSKSSIGISLREFLRSSYAKREKRHGLCLFRQLVELVDSAHSKRLFLLDLRPSLFTLVPSKKLRYIGNFGKNDLESDVDEDLNRRRPVVEESSSGGRDSKKRKMDLHLNSPGNQLQATSTGRPFKRKSPVIDLNMVDARNPDSCELQQQDYIKNLSVSSVSRKQSMSTWLEEQWYTCPEEINGEDIGEKSNIYALGVLLFELLCHCESGEMHAAMMADLRHRILPPTFLSKYPKEAGFCLWLLHPEPSSRPSARDILKSELICEDDSVKSTAAAEEISELLLHFLSSLEVQKKKKASKLLQDIQTLEDDIKEAERRYSSNVSLVRSHGAIEKRVQSSPLDEHCTTSSALFVPTANTDRLMSNIRQLEDAYFFMRSQINLSSSAATARSDKTLKDRDRCSENQNENQDMSTKGKSSDQLEVFFEGLCKFARYSKFETCGTIRSGDLLNSASVVCSLSFDPDEEHIAAAGISKKIKIFDFNAFMNESVGVHYPLVEMVNKSKLSCVCWNSYIKNYLASTDYDGVVQIWDAGTGQGFSQYTEHQKRAWSVDFSPSDPTKFVSGSDDCSVKLWSINEKRSLGTIWSPANVCCVQFSSYSNHLLAFGSADYKVYCYDLRYVKTPWCTLAGHEKAVSYVKFMDSETIVSASTDNSLKLWNLNKTNSSGLSPGACSLTYKGHTNQKNFVGLSVLDGYIACGSETNEVYSYYKSLPMPMTSYKFGSVDPISGNEYFDDNGQFVSSVCWRKKSNMLVAANSTGNMKLLKLV
binding [4]: binds | binding [5]: binds
